PubChem BioAssay AID1259415 (National Center for Advancing Translational Sciences (NCATS), 2018)
About 18,000 (4.4%) of roughly 410,000 compounds were called active. The shares of active, inactive and inconclusive entries below differ from those in the screen. Cut-off read from the data, not from the text of the source: active = activity change below about -60%; inconclusive = no clear call, values can overlap the other calls; inactive = above about -39%.

Assay: qHTS Assay for inhibitors of the human cytomegalovirus (HCMV)
Conditions: HFF cells, HCMV-luciferase reporter, 72 h; at 57.5 µM; stronger effect = lower value
In short: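 HFF cells seeded 16 h at 37C, treated with compounds, infected with luciferase-reporter HCMV at MOI 1 PFU/cell; luciferase read at 72 h post infection, normalized to buffer-only and Salinomycin controls.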
% is set by controls: 0 for no effect and ±100 for the full control effect.

Structure (SMILES) | activity change, negative = inhibition
COc1ccc(-c2cn3nc(N4CCCC(C(=O)Nc5ccccc5OC)C4)sc3n2)cc1 (centres undefined) | inconclusive: 0%
COc1ccc2occ(C(=O)c3coc4ccc(O)c(CN(C)C)c34)c2c1 | inconclusive: -46%
C[C@]12c3[nH]c4ccc(Cl)cc4c3CCN1C(=O)[C@@H](CC(=O)NCc1cccc(C(F)(F)F)c1)C[C@@H]2C(=O)N1CCCCC1 | active: -104%
O=C(NC1CCCc2ccccc21)C(Cc1ccccc1)NS(=O)(=O)c1cccs1 (centres undefined) | inconclusive: -52.4%
O=C(NC1CCCC1)C1C(c2ccccc2)=Nc2ccccc2N1C(=O)c1cc(Cl)cc(Cl)c1 (centres undefined) | inconclusive: -47.6%
Cc1cc(C(=O)CS(=O)(=O)c2ccccc2)cc(C)c1O | inactive: 46.6%
CN(CCCNC(=O)c1ccc(N2CCCC2=O)cc1)c1ccccc1 | inconclusive: -48.5%
CN1CCN(C(=S)c2ccc(OCC(=O)Nc3cccc(C(F)(F)F)c3)cc2)CC1 | active: -63.1%
CCn1c(C)c(C)c2cc(C(=O)NCc3ccc(OC(C)C)cc3)ccc21 | inconclusive: 0%
COc1ccc(NC(=O)Cn2c(=O)n(Cc3ccc4c(c3)OCO4)c(=O)c3ccc(C(=O)NC4CCCCC4)cc32)cc1 | inactive: 4.85%
O=C(Nc1ccccc1)c1nsnc1C(=O)Nc1ccccc1 | inconclusive: -59.6%
CN(C(=O)c1ccc2c(=O)n3c(nc2c1)CCCCC3)c1ccccc1 | inconclusive: -53.1%
COc1ccc(S(=O)(=O)N2CCCC(C(=O)Nc3ccc4c(c3)OCCO4)C2)cc1 (centres undefined) | inconclusive: -44.8%
COc1ccc(-c2csc(NC(=O)c3ccccc3NS(=O)(=O)c3ccc(C)cc3)n2)cc1 | active: -96%
O=C1C=CC(=O)N1CCNc1ncc(C(F)(F)F)cc1Cl | active: -95.5%
COc1cc(OC)cc(-c2cc3nc(C)c(CCC(=O)Nc4ccc(C(C)=O)cc4)c(C)n3n2)c1 | inconclusive: -56.1%
C/C(Cl)=C\Cn1c(N2CCCC2)nc2c1c(=O)[nH]c(=O)n2C | active: -88.5%
CC(C)c1c(C(=O)N/N=C/c2ccc3c(c2)OCO3)nnn1-c1nonc1N | inconclusive: -50.6%
Cc1ccc2nc(Nc3nc(CSc4nnc(C)s4)cc(=O)[nH]3)nc(C)c2c1 | active: -80.8%
CN1CCN(C(=O)c2ccc(C3SCC(=O)N3Cc3ccco3)cc2)CC1 (centres undefined) | inactive: -36.3%
Cc1cccc(C(=O)OCC(=O)N(C)c2ccccc2)c1C | inconclusive: -46.2%

For convenience, four of the compounds above:
Structure (SMILES) | activity change, negative = inhibition
O=C(NC1CCCC1)C1C(c2ccccc2)=Nc2ccccc2N1C(=O)c1cc(Cl)cc(Cl)c1 (centres undefined) | inconclusive: -47.6%
Cc1cc(C(=O)CS(=O)(=O)c2ccccc2)cc(C)c1O | inactive: 46.6%
CN(CCCNC(=O)c1ccc(N2CCCC2=O)cc1)c1ccccc1 | inconclusive: -48.5%
CN1CCN(C(=S)c2ccc(OCC(=O)Nc3cccc(C(F)(F)F)c3)cc2)CC1 | active: -63.1%

Next records.

Structure (SMILES) | activity change, negative = inhibition
COc1cccc(Nc2cc(C)nc3nc(C)nn23)c1 | inactive: 28%
CCCN(CCC)C(=O)Cn1c(SCc2cccc(C(F)(F)F)c2)nc2cccnc21 | inactive: -25.1%
COc1cc(C(=O)NCC(=O)N/N=C/c2cccs2)cc(OC)c1OC | inconclusive: -50.7%
CCOc1ccccc1CNC(=O)c1ccc(NC(=O)N2CC(C)Sc3ccccc32)cc1 (centres undefined) | inconclusive: -41.6%
Cc1cc2[nH]c(=O)c(=O)[nH]c2cc1S(=O)(=O)NCC(C)c1ccccc1 (centres undefined) | inconclusive: -47.3%
CC(C)CC(=O)NC(c1ccccc1)c1c(O)ccc2ccccc12 (centres undefined) | inactive: -2.13%
Cc1ccc2nc(N(CCCN(C)C)C(=O)CN3C(=O)c4ccccc4C3=O)sc2c1 | inconclusive: -52.6%
COc1ccc(-c2cn3cccnc3n2)cc1NC(=O)C(C)Oc1ccccc1 (centres undefined) | inactive: -24%
CN(C(=O)Cn1cnc2onc(-c3ccc(F)cc3)c2c1=O)c1ccccc1Cl | inactive: -6.1%
COc1cccc(/C=N/NC(=O)c2ccc(CN3c4cccc5cccc(c45)S3(=O)=O)cc2)c1 | inconclusive: -40.9%
CCC12C(=O)C(CC)(C(c3ccccc3)=C1c1ccccc1)[C@@H]1C(=O)N(c3ccccc3)C(=O)C12 (some centres undefined) | active: -60.6%
CC1(C)S[C@@H]2[C@H](NC(=O)Cc3ccccc3)C(=O)N2[C@H]1C(=O)O | inconclusive: -41.5%
CC1(C(=O)NCCc2c[nH]c3ccccc23)CCN1Cc1ccccc1OC(F)F (centres undefined) | active: -96.3%
COc1ccc(CCNC(=O)c2nc(SCc3ccccc3F)ncc2Cl)cc1OC | inconclusive: -46.2%
CN1CCN(C(=O)C2=C[C@@H](c3ccc(C(F)(F)F)cc3)C[C@@H](OCc3ccc(CO)cc3)O2)CC1 | inactive: 6.14%
CCOCCc1nn2c(=O)cc(COC(=O)Cc3ccccc3)nc2s1 | inactive: -1.71%
Cc1cccc(N2CCN(c3ccc(C(=O)O)cc3NC(=O)c3cccc(Cl)c3)CC2C)c1 (centres undefined) | inactive: 6.56%
O/N=C/c1ccc(-c2ccccc2OC(F)(F)F)o1 | inconclusive: -53.9%
CCOC(=O)c1c(NC(=O)C2=C(C)NC(=S)NC2c2ccccc2C(F)(F)F)sc(C)c1C (centres undefined) | inconclusive: -42.3%
C=CCS(=O)(=O)N1CCCC(Cc2ccccc2C)(C(=O)OCC)C1 (centres undefined) | inconclusive: -43.2%
COc1ccccc1CCn1c(N)c(C#N)c2nc3ccccc3nc21 | inconclusive: -54.6%

Structure (SMILES) | activity change, negative = inhibition
Cc1ccc(NC(=O)CC2Nc3cc(C)c(C)cc3NC2=O)c(C)c1 (centres undefined) | inactive: 36.3%
Cc1sc2nc(SCCN(C)C)n(-c3ccccc3)c(=O)c2c1-c1ccc(F)cc1 | inconclusive: -47.4%
COCCNC(=O)C1(C)CCN(C(=O)c2cc(C(C)(C)C)nn2C)C1 (centres undefined) | inconclusive: -59.9%
COc1ccc(C(=O)C2CCCN(Cc3ccsc3)C2)cc1OC (centres undefined) | inconclusive: -41.3%
C[C@]12CC[C@@H]3c4ccc(O)c(O)c4CC[C@H]3[C@@H]1CC[C@@H]2O | active: -91.4%
COc1ccc(Cc2noc(-c3ccccc3)n2)cc1OC | inconclusive: -50.4%
O=C(CN1CCCC1)Nc1ccc(F)cc1 | inconclusive: -41.5%
COCCN1C[C@@H](CO)O[C@@H](n2cnc3c(N4CCOCC4)ncnc32)C1 | inconclusive: -56.8%
C[C@H](CO)N1C[C@H](C)[C@@H](CN(C)C(=O)Nc2ccccc2)Oc2ccc(NS(=O)(=O)c3ccccc3)cc2C1=O | inconclusive: -53.4%
COc1ccc(CCNC(=S)NC(=O)c2ccccc2)cc1OC | inactive: -6.92%
C=CCn1c(SCC(=O)CC(=O)OCC)nc2cc(C(=O)N3CCC(C(N)=O)CC3)ccc2c1=O | inconclusive: -48.1%
CCc1ccc2c(c1)/C(=C/C(=O)c1cccs1)C(=O)N2 | active: -99.1%
CCn1c(=O)c([N+](=O)[O-])c(N2CCSCC2)c2ccccc21 | inconclusive: -48%
COc1ccc2[nH]c3c(c2c1)CCC/C3=N\N | inactive: 3.49%
NS(=O)(=O)c1ccc(NC(=S)NCc2cccc(Cl)c2)cc1 | inconclusive: -51.6%
NC(=O)c1sc2nc3c(c(-c4ccco4)c2c1N)CCC3 | active: -73.3%
COc1ccc(CNC(=O)C2CCCN(S(=O)(=O)c3ccc(Br)s3)C2)cc1 (centres undefined) | inconclusive: -56.5%
CCCCn1c(CCC(=O)O)ccc1-c1cccs1 | inconclusive: -41.8%
COc1ccc(CN2C(=O)c3ccccc3C(/C=N\OCc3ccc(F)cc3)C2=O)cc1 (centres undefined) | active: -90.7%
Cc1ccc2[nH]cc(C(c3ccccc3)c3ccc(C)s3)c2c1 (centres undefined) | active: -99.7%
NC(=O)CCCn1c(C(=O)c2cc(Cl)c(N)c(Cl)c2)c2ccc(C(F)(F)F)cc2[n+]1[O-] | inactive: -3.78%

Structure (SMILES) | activity change, negative = inhibition
CCOC(=O)c1ccc(-c2ccc(/C=C(\C#N)c3nc4ccc(C)cc4[nH]3)o2)cc1 | active: -79.2%
COc1cc(C2C(C#N)=C(N)OC3=C2C(=O)CC(C)(C)C3)ccc1OCCN1CCOCC1 (centres undefined) | inconclusive: -47.1%
O=C1CS/C(=N/N=C2CCCC2)N1 | inconclusive: -48.9%
COc1ccc(-c2onc(C)c2C)cc1S(=O)(=O)NCc1ccc(C)o1 | active: -71.2%
CC(=O)COc1cc(C)cc2oc(=O)cc(-c3ccccc3)c12 | inconclusive: -52.9%
O=C(CN1CCN(c2ccccn2)CC1)Nc1cccc(Br)c1 | inconclusive: -57.1%
COc1ccc(NC(=O)CSc2nc3ccccc3n2CC(=O)N2CCCCC2C)cc1 (centres undefined) | inactive: -20.6%
Cc1ccc(CN=c2c([N+](=O)[O-])nn(-c3cccc(Cl)c3)n2O)cc1 | inconclusive: -44.4%
CCc1ccc(Nc2n[n+](-c3ccccc3)c(-c3ccc(N(CC)CC)cc3)s2)cc1 | active: -93.1%
Cc1ccc(C2CCN(C(=S)Nc3cccc(C)c3)C2)cc1 (centres undefined) | inconclusive: -41.4%
O=C(c1cccc(F)c1)N1CCN(S(=O)(=O)Cc2ccccc2)CC1 | inconclusive: -41.2%
CN(C)c1ccc(NC(=S)NC23CC4CC(CC(C4)C2)C3)cc1 | inconclusive: -44.4%
CC(=O)OCC1=C(C(=O)O)N2C(=O)[C@@H](NC(=O)Cc3cccs3)[C@H]2SC1 | inactive: 0%
CCCC(=O)Nc1ccc2c(c1)C(=O)NC2=O | inconclusive: -50.3%
Cc1cc(-n2c(C)cc(C(=O)CCl)c2C)no1 | active: -95.6%
CN(c1ccc(OCC(=O)Nc2nc3ccccc3s2)cc1)S(=O)(=O)c1ccccc1 | inconclusive: -53.9%
COCCNC(=O)CN(Cc1ccccc1)S(=O)(=O)c1ccc2nc(C)sc2c1 | active: -60.7%
CC(C)(C)C1CCc2nc(NC(=O)c3ccc([N+](=O)[O-])cc3)sc2C1 (centres undefined) | active: -73.7%
COc1ccc2oc(-c3ccc(C)c(NC(=O)c4ccc(-c5ccccc5[N+](=O)[O-])o4)c3)nc2c1 | inactive: 58%
Cc1ccc(C(=O)O)cc1NC1(c2ccccc2)C(=O)c2ccccc2C1=O | inactive: 12.5%
Cc1ccc(NC(=O)CN(C)C(=O)COC(=O)[C@@H](NC(=O)c2ccccc2F)C(C)C)cc1 | inconclusive: -57%
